Data reported in publication PMC10281260.
These are yes or no findings as the source states them, for the method shown. In cells and extracts the contact can be indirect. Some entries that bind do so weakly or less than the wild type.

By UniProt entry, the sequences of proteins in these tests, tags left out. Residues count along the entry.
UniProt P54368: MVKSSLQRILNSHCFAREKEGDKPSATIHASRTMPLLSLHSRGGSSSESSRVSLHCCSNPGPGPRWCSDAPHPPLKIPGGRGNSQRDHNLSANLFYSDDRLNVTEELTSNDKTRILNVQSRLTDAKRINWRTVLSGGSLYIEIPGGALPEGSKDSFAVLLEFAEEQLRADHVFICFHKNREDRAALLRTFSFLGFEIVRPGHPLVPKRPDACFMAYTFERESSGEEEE
UniProt Q9UHB6, residues 161-759: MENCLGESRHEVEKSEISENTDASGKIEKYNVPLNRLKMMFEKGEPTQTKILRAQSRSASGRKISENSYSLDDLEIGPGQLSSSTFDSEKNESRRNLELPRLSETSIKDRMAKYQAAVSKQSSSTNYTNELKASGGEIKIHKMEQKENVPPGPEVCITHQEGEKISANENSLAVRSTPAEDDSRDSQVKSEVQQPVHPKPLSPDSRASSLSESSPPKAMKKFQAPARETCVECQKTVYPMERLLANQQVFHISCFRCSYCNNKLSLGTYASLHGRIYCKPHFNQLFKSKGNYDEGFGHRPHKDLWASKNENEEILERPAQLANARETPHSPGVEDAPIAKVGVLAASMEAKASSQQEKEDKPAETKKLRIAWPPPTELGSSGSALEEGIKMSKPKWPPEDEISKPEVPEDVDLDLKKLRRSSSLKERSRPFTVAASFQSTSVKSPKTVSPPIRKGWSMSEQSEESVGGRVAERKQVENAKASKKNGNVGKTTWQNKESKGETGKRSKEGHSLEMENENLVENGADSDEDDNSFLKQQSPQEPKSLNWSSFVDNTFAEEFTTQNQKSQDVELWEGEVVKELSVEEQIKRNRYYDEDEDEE

Target: ornithine decarboxylase antizyme 1 (Myc-Az1) (human) (UniProt P54368)
Test: co-IP; H1299 cells co-transfected with the plasmids; lysates (0.5% NP-40 buffer) collected 24 h post transfection; IP with anti-Myc antibody (~5 μg/ml) 3 h at 4°C, protein G-agarose 2 h at 4°C; western blot

- binding: binds
Substance: EPLIN-α (LIM domain and actin-binding protein 1, isoform α) (from UniProt Q9UHB6-2 1-599)
